Assay results from article PMC5072618.
Results are given in words; binding and its absence hold for the method and conditions named. In cells and extracts the contact can be indirect. Some entries that bind do so weakly or less than the wild type.

By UniProt entry, the sequences of proteins in these tests, tags left out.
UniProt Q8N884: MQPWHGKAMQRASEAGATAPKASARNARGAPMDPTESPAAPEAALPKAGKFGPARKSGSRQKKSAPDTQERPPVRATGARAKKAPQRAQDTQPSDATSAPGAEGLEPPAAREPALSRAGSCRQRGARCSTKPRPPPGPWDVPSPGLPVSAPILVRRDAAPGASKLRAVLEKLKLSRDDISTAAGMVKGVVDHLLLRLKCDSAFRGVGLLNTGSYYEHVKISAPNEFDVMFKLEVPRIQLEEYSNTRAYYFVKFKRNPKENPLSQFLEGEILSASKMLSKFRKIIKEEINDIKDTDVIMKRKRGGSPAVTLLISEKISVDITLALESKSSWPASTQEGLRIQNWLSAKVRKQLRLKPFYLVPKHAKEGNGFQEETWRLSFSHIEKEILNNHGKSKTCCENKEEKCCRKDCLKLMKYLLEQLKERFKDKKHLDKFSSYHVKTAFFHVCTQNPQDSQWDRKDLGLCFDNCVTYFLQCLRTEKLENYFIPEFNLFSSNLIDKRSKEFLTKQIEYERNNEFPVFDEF
UniProt Q16666: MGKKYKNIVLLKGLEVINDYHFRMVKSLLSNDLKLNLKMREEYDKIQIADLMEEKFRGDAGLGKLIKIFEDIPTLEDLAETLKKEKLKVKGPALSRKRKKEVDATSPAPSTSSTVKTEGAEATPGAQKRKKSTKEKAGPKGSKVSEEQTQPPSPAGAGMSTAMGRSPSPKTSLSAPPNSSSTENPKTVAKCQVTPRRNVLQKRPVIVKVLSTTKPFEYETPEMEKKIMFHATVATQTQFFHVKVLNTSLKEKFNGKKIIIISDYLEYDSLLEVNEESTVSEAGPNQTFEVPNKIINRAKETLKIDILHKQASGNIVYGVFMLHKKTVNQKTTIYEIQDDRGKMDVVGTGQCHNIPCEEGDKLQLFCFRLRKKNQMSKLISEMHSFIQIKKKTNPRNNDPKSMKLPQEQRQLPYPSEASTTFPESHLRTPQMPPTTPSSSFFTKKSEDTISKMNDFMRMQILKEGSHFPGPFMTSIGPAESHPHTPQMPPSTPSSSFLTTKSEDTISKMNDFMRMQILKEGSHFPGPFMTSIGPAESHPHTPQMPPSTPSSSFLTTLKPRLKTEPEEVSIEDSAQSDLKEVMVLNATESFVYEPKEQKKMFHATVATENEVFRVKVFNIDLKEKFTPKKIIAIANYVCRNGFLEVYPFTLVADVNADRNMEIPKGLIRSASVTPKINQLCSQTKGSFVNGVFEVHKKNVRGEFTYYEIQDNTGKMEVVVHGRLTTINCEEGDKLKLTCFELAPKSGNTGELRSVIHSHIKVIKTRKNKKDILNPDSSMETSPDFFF
UniProt Q86WV6: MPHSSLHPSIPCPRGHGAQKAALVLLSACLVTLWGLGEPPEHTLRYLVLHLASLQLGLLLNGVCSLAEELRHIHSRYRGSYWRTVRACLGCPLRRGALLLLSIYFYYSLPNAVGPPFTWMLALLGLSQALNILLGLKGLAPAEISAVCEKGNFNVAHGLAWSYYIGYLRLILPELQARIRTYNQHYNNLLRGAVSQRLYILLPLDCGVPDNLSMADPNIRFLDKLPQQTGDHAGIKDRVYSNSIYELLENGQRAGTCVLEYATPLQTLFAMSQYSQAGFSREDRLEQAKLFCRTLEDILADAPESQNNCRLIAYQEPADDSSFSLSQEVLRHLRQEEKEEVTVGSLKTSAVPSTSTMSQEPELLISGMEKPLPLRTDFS
UniProt Q9ULZ3: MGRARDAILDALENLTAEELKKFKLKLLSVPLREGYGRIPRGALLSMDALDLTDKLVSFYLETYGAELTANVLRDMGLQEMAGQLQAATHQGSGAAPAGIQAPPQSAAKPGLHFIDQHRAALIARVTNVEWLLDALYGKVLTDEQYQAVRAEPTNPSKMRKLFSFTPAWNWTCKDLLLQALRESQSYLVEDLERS

Tests used:
[1] = target: cGAS (cGAMP-Synthase) (human (endogenous in HMVEC-d, BJAB, BCBL-1)) (UniProt Q8N884); assay: proximity ligation; double sequential PLA (green, then red detection) on HMVEC-d cells infected with KSHV for 4 h
[2] = target: cGAS (cGAMP-Synthase) (human (endogenous in HMVEC-d, BJAB, BCBL-1)) (UniProt Q8N884); assay: co-IP; cytoplasmic extracts of BCBL-1 cells (latent KSHV); IP with anti-IFI16, anti-H2B, anti-STING or anti-cGAS antibodies, immunoblot
[3] = target: cGAS (cGAMP-Synthase) (human (endogenous in HMVEC-d, BJAB, BCBL-1)) (UniProt Q8N884); assay: proximity ligation; double sequential PLA (green, then red detection) on uninfected HMVEC-d cells
[4] = target: cGAS (cGAMP-Synthase) (human (endogenous in HMVEC-d, BJAB, BCBL-1)) (UniProt Q8N884); assay: co-IP; cytoplasmic fractions of KSHV infected (30 DNA copies/cell; 2, 4, 12, 24 h p.i.) HMVEC-d cells; IP with anti-IFI16, anti-H2B, anti-STING or anti-cGAS antibodies, immunoblot
[5] = target: cGAS (cGAMP-Synthase) (human (endogenous in HMVEC-d, BJAB, BCBL-1)) (UniProt Q8N884); assay: co-IP; nuclear fractions of uninfected BJAB, HMVEC-d and HFF cells; IP with anti-IFI16, anti-H2B or anti-cGAS antibodies overnight at 4°C, protein A/G sepharose, immunoblot
[6] = target: cGAS (cGAMP-Synthase) (human (endogenous in HMVEC-d, BJAB, BCBL-1)) (UniProt Q8N884); assay: co-IP; nuclear extracts of BCBL-1 cells (latent KSHV); IP with anti-IFI16, anti-H2B or anti-cGAS antibodies, immunoblot
[7] = target: cGAS (cGAMP-Synthase) (human (endogenous in HMVEC-d, BJAB, BCBL-1)) (UniProt Q8N884); assay: condition: only uninfected BJAB cells (cytoplasmic fraction); co-IP; cytoplasmic fractions of uninfected BJAB, HMVEC-d and HFF cells; IP with anti-IFI16, anti-H2B, anti-STING or anti-cGAS antibodies, immunoblot
[8] = target: cGAS (cGAMP-Synthase) (human (endogenous in HMVEC-d, BJAB, BCBL-1)) (UniProt Q8N884); assay: proximity ligation
[9] = target: IFI16 (gamma-interferon-inducible protein 16) (human (endogenous in HMVEC-d, HFF, BJAB, BCBL-1)) (UniProt Q16666); assay: co-IP; nuclear fractions of uninfected BJAB, HMVEC-d and HFF cells; IP with anti-IFI16, anti-H2B or anti-cGAS antibodies overnight at 4°C, protein A/G sepharose, immunoblot

binding [1] | binding [2] | binding [3] | binding [4] | binding [5] | binding [6] | binding [7] | binding [8] | binding [9] | Substance
binds | binds | no binding (condition: uninfected cells) | binds | – | – | – | – | – | STING (from UniProt Q86WV6 1-379)
– | binds | – | binds | binds | binds | no binding | binds | – | IFI16 (gamma-interferon-inducible protein 16) (from UniProt Q16666 1-785)
– | – | – | – | – | – | – | – | no binding (condition: uninfected cells) | ASC (from UniProt Q9ULZ3 1-195)
